Test results as given in the supplement of paper PMC10849652.
The other results are listed elsewhere or left out.

Chains of the proteins cited; added tags and fusions are not shown. Lines headed by an entry give the natural chain unless they say otherwise; changes in a name come on top.
UniProt P09110: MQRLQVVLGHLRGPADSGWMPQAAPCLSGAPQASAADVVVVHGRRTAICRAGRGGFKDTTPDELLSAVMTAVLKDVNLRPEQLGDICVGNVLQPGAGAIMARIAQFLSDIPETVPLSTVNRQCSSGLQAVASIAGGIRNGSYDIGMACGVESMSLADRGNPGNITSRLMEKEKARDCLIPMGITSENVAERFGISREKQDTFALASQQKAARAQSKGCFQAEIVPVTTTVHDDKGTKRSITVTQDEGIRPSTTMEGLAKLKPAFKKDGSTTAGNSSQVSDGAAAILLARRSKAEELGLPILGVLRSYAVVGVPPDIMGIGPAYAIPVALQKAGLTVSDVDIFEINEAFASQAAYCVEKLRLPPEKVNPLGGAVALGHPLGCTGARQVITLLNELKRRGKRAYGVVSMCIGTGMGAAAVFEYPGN
UniProt Q2M2I8: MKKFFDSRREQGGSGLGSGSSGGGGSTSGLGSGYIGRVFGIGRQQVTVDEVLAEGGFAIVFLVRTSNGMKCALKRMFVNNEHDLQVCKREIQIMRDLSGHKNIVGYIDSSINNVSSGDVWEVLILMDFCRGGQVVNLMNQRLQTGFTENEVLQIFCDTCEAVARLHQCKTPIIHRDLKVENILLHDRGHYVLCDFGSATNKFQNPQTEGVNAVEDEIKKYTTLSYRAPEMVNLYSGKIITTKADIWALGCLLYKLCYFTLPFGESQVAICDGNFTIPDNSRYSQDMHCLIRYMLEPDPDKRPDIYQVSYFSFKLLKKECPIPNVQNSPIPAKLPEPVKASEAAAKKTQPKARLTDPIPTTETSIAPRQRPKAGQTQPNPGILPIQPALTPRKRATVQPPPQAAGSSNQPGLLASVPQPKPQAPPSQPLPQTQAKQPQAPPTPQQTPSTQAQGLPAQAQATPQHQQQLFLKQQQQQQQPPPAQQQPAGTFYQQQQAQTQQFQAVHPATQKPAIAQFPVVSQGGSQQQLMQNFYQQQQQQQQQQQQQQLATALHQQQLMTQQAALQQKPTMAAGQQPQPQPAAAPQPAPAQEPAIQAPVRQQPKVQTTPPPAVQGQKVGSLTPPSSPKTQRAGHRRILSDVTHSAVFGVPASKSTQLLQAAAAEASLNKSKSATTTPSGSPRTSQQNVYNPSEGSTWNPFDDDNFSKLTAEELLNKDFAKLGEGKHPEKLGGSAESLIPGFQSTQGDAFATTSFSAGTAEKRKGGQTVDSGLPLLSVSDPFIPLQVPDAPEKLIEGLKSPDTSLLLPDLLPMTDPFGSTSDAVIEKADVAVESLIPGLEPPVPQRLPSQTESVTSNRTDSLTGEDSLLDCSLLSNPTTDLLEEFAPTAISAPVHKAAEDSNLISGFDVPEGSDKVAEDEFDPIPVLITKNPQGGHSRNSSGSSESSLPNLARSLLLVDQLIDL
UniProt Q9H845: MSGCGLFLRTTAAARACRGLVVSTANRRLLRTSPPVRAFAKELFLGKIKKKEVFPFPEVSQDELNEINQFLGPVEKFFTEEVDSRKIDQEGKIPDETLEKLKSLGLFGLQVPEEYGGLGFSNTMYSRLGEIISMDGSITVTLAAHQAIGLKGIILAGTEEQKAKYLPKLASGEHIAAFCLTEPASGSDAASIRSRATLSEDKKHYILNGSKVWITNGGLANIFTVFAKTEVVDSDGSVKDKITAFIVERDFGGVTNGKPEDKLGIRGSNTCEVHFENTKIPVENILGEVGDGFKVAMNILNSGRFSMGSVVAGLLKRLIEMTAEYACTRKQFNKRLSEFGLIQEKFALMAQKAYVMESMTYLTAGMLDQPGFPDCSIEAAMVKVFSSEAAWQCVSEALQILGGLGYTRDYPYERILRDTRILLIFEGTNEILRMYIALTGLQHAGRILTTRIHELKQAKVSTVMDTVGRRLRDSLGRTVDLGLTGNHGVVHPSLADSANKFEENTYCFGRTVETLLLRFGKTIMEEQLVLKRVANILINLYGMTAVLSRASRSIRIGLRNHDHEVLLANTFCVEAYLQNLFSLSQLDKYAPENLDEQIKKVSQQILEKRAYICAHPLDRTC
UniProt P21399: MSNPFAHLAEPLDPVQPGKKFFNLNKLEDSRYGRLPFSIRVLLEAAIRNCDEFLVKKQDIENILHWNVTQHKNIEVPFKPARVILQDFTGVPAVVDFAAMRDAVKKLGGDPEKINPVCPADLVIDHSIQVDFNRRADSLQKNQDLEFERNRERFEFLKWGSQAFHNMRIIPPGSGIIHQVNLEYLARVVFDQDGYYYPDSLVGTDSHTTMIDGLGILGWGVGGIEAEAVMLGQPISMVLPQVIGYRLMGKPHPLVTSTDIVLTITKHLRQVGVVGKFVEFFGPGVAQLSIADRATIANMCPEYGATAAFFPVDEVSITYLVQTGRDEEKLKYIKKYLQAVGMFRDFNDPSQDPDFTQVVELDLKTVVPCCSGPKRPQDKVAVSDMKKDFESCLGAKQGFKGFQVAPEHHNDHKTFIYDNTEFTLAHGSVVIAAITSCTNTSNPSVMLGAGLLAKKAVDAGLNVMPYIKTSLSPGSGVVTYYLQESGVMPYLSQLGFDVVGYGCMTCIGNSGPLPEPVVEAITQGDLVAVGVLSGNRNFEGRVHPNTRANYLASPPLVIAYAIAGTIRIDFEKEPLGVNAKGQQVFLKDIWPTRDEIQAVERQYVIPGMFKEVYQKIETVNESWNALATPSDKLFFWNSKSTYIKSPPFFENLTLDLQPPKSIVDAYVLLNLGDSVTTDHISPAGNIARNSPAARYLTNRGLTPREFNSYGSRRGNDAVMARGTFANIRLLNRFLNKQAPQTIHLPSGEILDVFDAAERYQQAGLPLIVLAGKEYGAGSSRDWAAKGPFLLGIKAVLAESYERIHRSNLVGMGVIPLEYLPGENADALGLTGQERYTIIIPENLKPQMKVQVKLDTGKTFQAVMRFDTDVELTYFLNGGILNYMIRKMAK
UniProt Q6PD74: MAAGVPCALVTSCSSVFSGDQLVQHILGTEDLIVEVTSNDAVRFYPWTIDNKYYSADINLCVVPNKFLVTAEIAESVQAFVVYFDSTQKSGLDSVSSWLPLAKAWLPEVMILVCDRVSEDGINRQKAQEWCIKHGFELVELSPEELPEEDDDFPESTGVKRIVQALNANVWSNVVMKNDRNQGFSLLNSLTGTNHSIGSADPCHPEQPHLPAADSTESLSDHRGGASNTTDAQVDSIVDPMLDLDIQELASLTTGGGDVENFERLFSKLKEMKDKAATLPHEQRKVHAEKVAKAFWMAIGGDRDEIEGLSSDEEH
UniProt Q9NUQ8: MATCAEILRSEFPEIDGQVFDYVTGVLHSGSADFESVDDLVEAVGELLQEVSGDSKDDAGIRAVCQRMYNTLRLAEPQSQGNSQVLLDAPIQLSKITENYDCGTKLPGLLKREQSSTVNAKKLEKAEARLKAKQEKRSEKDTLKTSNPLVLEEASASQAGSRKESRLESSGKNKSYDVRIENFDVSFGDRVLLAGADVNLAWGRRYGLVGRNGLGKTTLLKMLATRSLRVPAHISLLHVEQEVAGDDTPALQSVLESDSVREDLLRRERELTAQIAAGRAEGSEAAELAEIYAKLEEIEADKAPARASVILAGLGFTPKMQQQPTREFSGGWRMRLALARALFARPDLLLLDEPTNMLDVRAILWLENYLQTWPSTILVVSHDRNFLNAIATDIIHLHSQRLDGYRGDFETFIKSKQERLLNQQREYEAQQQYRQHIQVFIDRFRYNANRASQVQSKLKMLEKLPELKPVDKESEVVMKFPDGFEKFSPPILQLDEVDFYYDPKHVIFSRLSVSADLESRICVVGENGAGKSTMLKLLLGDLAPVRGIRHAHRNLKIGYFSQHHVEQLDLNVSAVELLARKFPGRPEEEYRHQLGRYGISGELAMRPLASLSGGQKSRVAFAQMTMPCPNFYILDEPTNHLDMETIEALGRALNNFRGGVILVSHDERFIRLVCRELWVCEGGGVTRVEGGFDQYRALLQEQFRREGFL
UniProt P49588, whole entry, looked up: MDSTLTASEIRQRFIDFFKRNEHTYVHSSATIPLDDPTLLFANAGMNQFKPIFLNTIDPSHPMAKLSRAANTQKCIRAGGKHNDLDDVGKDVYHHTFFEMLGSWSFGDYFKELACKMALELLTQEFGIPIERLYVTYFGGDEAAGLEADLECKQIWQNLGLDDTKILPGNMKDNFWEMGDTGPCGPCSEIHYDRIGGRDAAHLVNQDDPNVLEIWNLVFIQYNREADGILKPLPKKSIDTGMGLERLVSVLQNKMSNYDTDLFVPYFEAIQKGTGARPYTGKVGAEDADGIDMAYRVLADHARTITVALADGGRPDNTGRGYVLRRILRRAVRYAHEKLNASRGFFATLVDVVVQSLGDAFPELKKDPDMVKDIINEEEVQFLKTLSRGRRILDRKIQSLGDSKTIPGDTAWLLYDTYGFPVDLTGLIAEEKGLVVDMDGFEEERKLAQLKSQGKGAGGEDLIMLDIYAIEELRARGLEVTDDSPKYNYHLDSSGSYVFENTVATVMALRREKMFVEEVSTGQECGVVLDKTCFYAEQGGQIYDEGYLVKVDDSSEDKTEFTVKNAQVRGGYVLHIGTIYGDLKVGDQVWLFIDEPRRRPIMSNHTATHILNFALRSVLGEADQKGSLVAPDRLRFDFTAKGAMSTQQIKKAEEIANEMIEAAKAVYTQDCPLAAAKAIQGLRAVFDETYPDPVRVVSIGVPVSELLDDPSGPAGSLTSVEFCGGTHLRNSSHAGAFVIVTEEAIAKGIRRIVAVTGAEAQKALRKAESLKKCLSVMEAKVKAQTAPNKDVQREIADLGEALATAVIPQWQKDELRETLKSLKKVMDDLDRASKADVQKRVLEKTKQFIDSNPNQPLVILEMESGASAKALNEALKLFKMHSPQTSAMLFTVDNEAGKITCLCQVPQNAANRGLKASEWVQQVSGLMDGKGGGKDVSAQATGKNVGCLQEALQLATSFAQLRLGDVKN
UniProt Q96GS6: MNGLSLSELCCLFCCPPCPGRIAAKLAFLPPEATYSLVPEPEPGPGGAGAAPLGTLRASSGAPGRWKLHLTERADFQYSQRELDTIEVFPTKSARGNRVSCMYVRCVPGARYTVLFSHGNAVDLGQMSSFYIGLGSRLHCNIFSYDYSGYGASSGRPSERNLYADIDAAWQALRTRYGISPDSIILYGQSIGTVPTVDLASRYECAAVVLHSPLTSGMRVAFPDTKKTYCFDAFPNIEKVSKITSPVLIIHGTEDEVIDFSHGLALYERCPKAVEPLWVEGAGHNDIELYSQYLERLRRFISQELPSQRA
UniProt Q86V21: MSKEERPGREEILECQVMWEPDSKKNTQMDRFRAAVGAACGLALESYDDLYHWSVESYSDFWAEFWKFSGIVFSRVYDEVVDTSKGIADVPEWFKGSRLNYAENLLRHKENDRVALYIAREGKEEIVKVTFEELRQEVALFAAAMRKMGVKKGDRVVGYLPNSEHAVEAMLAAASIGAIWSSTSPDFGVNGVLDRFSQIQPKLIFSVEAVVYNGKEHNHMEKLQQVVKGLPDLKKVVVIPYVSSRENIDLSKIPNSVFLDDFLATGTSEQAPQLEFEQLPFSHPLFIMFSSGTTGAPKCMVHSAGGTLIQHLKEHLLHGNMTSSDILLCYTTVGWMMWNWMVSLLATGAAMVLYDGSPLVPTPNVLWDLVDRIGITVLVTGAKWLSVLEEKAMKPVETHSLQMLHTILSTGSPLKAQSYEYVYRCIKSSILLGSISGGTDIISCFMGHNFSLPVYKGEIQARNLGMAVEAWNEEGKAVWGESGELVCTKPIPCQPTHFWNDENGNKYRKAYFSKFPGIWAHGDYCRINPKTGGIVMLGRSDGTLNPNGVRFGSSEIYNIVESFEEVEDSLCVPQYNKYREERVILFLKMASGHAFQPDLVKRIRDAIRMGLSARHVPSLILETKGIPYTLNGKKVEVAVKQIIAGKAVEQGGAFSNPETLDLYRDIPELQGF
UniProt Q9UG63: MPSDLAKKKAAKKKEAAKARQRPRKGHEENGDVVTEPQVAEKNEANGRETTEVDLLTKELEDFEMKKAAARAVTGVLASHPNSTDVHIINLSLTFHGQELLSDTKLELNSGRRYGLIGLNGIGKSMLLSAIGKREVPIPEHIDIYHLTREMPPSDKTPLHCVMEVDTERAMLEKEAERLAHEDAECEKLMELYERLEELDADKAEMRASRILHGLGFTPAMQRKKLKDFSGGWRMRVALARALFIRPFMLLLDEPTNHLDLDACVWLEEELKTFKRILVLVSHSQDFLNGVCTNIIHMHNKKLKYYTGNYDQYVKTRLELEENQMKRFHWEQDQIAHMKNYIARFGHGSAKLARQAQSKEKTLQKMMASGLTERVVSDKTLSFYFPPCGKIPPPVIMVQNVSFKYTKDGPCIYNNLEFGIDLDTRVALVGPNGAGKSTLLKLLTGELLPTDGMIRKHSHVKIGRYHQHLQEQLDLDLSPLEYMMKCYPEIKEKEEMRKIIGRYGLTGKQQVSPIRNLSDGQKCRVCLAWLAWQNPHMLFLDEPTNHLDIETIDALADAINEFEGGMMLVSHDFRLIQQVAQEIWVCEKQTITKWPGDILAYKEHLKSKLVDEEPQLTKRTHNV

Key:
Assay in all cases: log2 fold change, soluble protein after heating vs DMSO (PISA); higher = thermal stabilisation; K562 lysate, 10 uM; active = over 0.2 and 3.5 SD of the protein, either way, in both replicates (recomputed)
[1] = compound: Cc1cn(-c2cc(NC(=O)c3ccc(C)c(Nc4nccc(-c5cccnc5)n4)c3)cc(C(F)(F)F)c2)cn1 [nilotinib]
In short: (§1)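 Dounce homogenisation of K562 pellets in PBS pH 7.4 with 1 mM MgCl2 produced a crude extract, used at 1 mg/mL protein. Exposure to 10 μM compound lasted 30 min, and aliquots were then heated for 3 min across 48°C-58°C, pooled and brought to 0.5% NP-40 at 4°C. The supernatant after 21,000xg for 90 min was quantified by TMTpro 16plex LC-MS/MS with channel sums equalised. Duplicate values are given as log-two fold change in thermal stability relative to solvent controls.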

[2] = compound: Cc1nc(Nc2n[nH]c3c2CN(C(=O)N[C@H](CN(C)C)c2ccccc2)C3(C)C)c2sccc2n1
In short: as §1

[3] = compound: Cc1nc(Nc2ncc(C(=O)Nc3c(C)cccc3Cl)s2)cc(N2CCN(CCO)CC2)n1 [dasatinib]
In short: as §1

[4] = compound: Cc1ncc(-c2ccnc(Nc3ccc(S(C)(=O)=O)cc3)n2)n1C(C)C
In short: as §1

[5] = compound: Cn1cc(-c2ccc3c(c2)CCN3C(=O)Cc2cccc(C(F)(F)F)c2)c2c(N)ncnc21
In short: as §1

[6] = compound: Cn1cc(CNCC2CCN(c3ncc(C(=O)NO)cn3)CC2)c2ccccc21 [quisinostat]
In short: as §1

[7] = compound: Cn1cncc1[C@@](N)(c1ccc(Cl)cc1)c1ccc2c(c1)c(-c1cccc(Cl)c1)cc(=O)n2C [tipifarnib]
In short: as §1

[8] = compound: NC(=O)Nc1cc(-c2cccc(F)c2)sc1C(=O)N[C@H]1CCCNC1
In short: as §1

[9] = compound: NC(=O)c1cnc(N[C@@H]2CCCC[C@@H]2N)nc1Nc1cccc(-n2nccn2)c1
In short: as §1

[10] = compound: NC1(c2ccc(-c3nc4ccn5c(=O)[nH]nc5c4cc3-c3ccccc3)cc2)CCC1
In short: as §1

[11] = compound: NCC(=O)Nc1ccc(-n2nc(C(F)(F)F)cc2-c2ccc3c(ccc4ccccc43)c2)cc1
In short: as §1

[12] = compound: O=C(CCCCCCC(=O)Nc1ccccc1)NO [vorinostat]
In short: as §1

[13] = compound: O=C(O)c1ccc2c(c1)nc(Nc1cccc(Cl)c1)c1ccncc12 [silmitasertib]
In short: as §1

[14] = compound: O=C1NC(=O)C(c2cnc3ccccn23)=C1c1cn2c3c(cc(F)cc13)CN(C(=O)N1CCCCC1)CC2
In short: as §1

[15] = compound: c1cn2cc(-c3ccc4cn[nH]c4c3)nc(Nc3ccc(N4CCOCC4)cc3)c2n1 [entospletinib]
In short: as §1

Row | Target | log2 fold change [1] | log2 fold change [2] | log2 fold change [3] | log2 fold change [4] | log2 fold change [5] | log2 fold change [6] | log2 fold change [7] | log2 fold change [8] | log2 fold change [9] | log2 fold change [10] | log2 fold change [11] | log2 fold change [12] | log2 fold change [13] | log2 fold change [14] | log2 fold change [15]
1 | ACAA1 (UniProt P09110) | inactive: 0.035 | inactive: -0.019 | inactive: 0.014 | inactive: -0.007 | inactive: -0.027 | inactive: -0.026 | inactive: 0.011 | inactive: -0.001 | inactive: -0.016 | inactive: 0.009 | inactive: -0.005 | active: -0.332 | inactive: -0.039 | inactive: 0.033 | inactive: 0.038
2 | AAK1 (UniProt Q2M2I8) | inactive: -0.045 | inactive: 0.45 | inactive: 0.042 | inactive: 0.42 | inactive: -0.005 | inactive: -0.074 | inactive: 0 | inactive: 0.522 | inactive: 0.086 | inactive: -0.042 | inactive: -0.007 | inactive: -0.259 | inactive: 0.039 | inactive: 0.42 | inactive: 0.202
3 | ACAD9 (UniProt Q9H845) | inactive: 0.026 | inactive: -0.019 | inactive: 0.102 | inactive: -0.006 | inactive: 0.051 | inactive: 0.001 | inactive: 0.051 | inactive: 0 | inactive: 0 | inactive: 0.012 | inactive: -0.03 | inactive: 0.041 | inactive: 0.026 | inactive: -0.023 | inactive: -0.005
4 | ACBD3 (UniProt Q9H3P7) | inactive: 0.001 | inactive: 0.006 | inactive: 0.029 | inactive: 0.012 | inactive: 0.002 | inactive: -0.027 | inactive: 0.021 | inactive: 0.003 | inactive: 0.024 | inactive: 0.03 | inactive: 0.035 | inactive: -0.077 | inactive: -0.021 | inactive: -0.006 | inactive: 0.014
5 | A2M (UniProt P01023) | inactive: 0.049 | inactive: 0.012 | inactive: -0.002 | inactive: -0.019 | inactive: 0.001 | inactive: 0.109 | inactive: -0.031 | inactive: 0.003 | inactive: -0.01 | inactive: 0.014 | inactive: -0.011 | inactive: 0.093 | inactive: -0.056 | inactive: 0.063 | inactive: -0.002
6 | ACO1 (UniProt P21399) | inactive: 0.005 | inactive: -0.015 | inactive: 0.017 | inactive: -0.013 | inactive: 0.026 | inactive: 0.044 | inactive: 0.009 | inactive: -0.011 | inactive: -0.002 | inactive: 0.025 | inactive: -0.009 | inactive: 0.096 | inactive: 0.015 | inactive: -0.021 | inactive: -0.005
7 | AAGAB (UniProt Q6PD74) | inactive: 0.011 | inactive: 0.043 | inactive: -0.033 | inactive: -0.034 | inactive: 0 | inactive: -0.007 | inactive: 0.03 | inactive: -0.014 | inactive: 0.007 | inactive: -0.043 | inactive: 0.014 | inactive: 0.05 | inactive: -0.006 | inactive: 0.009 | inactive: -0.03
8 | ABCA4 (UniProt P78363) | inactive: 0.029 | inactive: -0.072 | inactive: -0.029 | inactive: 0.109 | inactive: 0.036 | inactive: -0.103 | inactive: 0.166 | inactive: 0.004 | inactive: 0.022 | inactive: -0.108 | inactive: 0.092 | inactive: 0.054 | inactive: 0.008 | inactive: 0.101 | inactive: -0.009
9 | ABCE1 (UniProt P61221) | inactive: 0.037 | inactive: 0.105 | inactive: 0.046 | inactive: 0.015 | inactive: 0 | inactive: 0.004 | inactive: 0.01 | inactive: -0.013 | inactive: 0 | inactive: -0.023 | inactive: 0.001 | inactive: 0.104 | inactive: -0.045 | inactive: -0.015 | inactive: 0.072
10 | AAK1, A0A096LP25 | inactive: -0.006 | inactive: 0.347 | inactive: 0.061 | inactive: 0.374 | inactive: 0.008 | inactive: -0.034 | inactive: -0.136 | inactive: 0.44 | inactive: 0.104 | inactive: -0.045 | inactive: -0.031 | inactive: -0.217 | inactive: 0.075 | inactive: 0.361 | inactive: 0.241
11 | A0A096LPI6, A0A096LPI6 | inactive: -0.001 | inactive: -0.014 | inactive: -0.004 | inactive: 0.002 | inactive: 0.009 | inactive: 0.036 | inactive: 0.027 | inactive: -0.034 | inactive: -0.018 | inactive: 0.015 | inactive: -0.003 | inactive: 0.089 | inactive: -0.003 | inactive: 0.014 | inactive: -0.025
12 | ABLIM1 (UniProt O14639) | inactive: -0.107 | inactive: -0.005 | inactive: -0.039 | inactive: -0.009 | inactive: -0.014 | inactive: -0.233 | inactive: -0.028 | inactive: 0.032 | inactive: 0.017 | inactive: -0.022 | inactive: 0.024 | inactive: 0.007 | inactive: 0.106 | inactive: 0.093 | inactive: 0.033
13 | ABCF3 (UniProt Q9NUQ8) | inactive: -0.025 | inactive: 0.014 | inactive: -0.053 | inactive: 0.001 | inactive: 0.044 | inactive: -0.04 | inactive: -0.003 | inactive: 0.012 | inactive: 0.011 | inactive: -0.062 | inactive: 0.026 | active: -0.439 | inactive: 0.033 | inactive: -0.004 | inactive: -0.013
14 | AARS (UniProt P49588) | inactive: -0.026 | inactive: -0.001 | inactive: -0.015 | inactive: -0.006 | inactive: 0.024 | inactive: 0.013 | inactive: -0.009 | inactive: 0.02 | inactive: -0.013 | inactive: 0.001 | inactive: -0.002 | inactive: 0.001 | inactive: 0.015 | inactive: -0.009 | inactive: 0.017
15 | ABHD17A isoform 2 (UniProt Q96GS6) | inactive: 0.062 | inactive: 0.038 | inactive: -0.141 | inactive: 0.096 | inactive: 0.017 | inactive: -0.09 | inactive: 0.097 | inactive: -0.007 | inactive: 0.008 | inactive: 0.007 | inactive: 0.001 | active: 0.363 | inactive: -0.059 | inactive: -0.025 | inactive: 0.043
16 | ABCF1 (UniProt Q8NE71) | inactive: 0.001 | inactive: -0.011 | inactive: -0.018 | inactive: 0 | inactive: 0.013 | inactive: 0.015 | inactive: -0.005 | inactive: 0.04 | inactive: -0.013 | inactive: -0.015 | inactive: 0.004 | inactive: -0.128 | inactive: 0.017 | inactive: 0.013 | inactive: 0.019
17 | AACS (UniProt Q86V21) | inactive: 0.003 | inactive: 0.007 | inactive: 0.013 | inactive: -0.025 | inactive: 0.049 | inactive: -0.011 | inactive: -0.049 | inactive: 0.05 | inactive: -0.008 | inactive: 0.016 | inactive: -0.106 | inactive: -0.144 | inactive: 0.024 | inactive: 0.007 | inactive: -0.019
18 | ACADSB (UniProt P45954) | inactive: 0.023 | inactive: -0.027 | inactive: -0.161 | inactive: 0.062 | inactive: 0.077 | inactive: -0.006 | inactive: -0.034 | inactive: 0.029 | inactive: -0.025 | inactive: 0.036 | inactive: -0.013 | inactive: -0.029 | inactive: -0.052 | inactive: 0.009 | inactive: -0.034
19 | ABCF2 isoform 2 (UniProt Q9UG63) | inactive: 0.001 | inactive: -0.001 | inactive: -0.036 | inactive: -0.024 | inactive: 0.005 | inactive: -0.022 | inactive: 0.002 | inactive: 0.042 | inactive: -0.002 | inactive: -0.023 | inactive: 0.103 | active: -0.326 | inactive: 0.054 | inactive: 0.016 | inactive: -0.028
